For this test, the target named is Neutrophil collagenase (Homo sapiens, UniProt P22894). The experiment in a line: Inhibition of human recombinant MMP8. The gist of the method:
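Activation of pro-MMP-8 used APMA 2 mM for 1 h at 37 °C, with enzyme at 1.5 nM final. Enzyme and inhibitor (seven concentrations) were preincubated 4 h at 25 °C in Tris-buffered saline pH 7.5 with CaCl2 10 mM, Brij 35 0.05%, DMSO 1%. Then Mca-Lys-Pro-Leu-Gly-Leu-Dpa-Ala-Arg-NH2 was added, and fluorescence (ex 325, em 400 nm) was read every 15 s for 20 min, triplicate. IC50 was obtained via Vi/Vo = 1/(1+[I]/IC50).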

Amino acid sequences for entries named in this document (tags omitted). A change or cut given only in a name is not applied to a line headed by its entry.
UniProt P22894: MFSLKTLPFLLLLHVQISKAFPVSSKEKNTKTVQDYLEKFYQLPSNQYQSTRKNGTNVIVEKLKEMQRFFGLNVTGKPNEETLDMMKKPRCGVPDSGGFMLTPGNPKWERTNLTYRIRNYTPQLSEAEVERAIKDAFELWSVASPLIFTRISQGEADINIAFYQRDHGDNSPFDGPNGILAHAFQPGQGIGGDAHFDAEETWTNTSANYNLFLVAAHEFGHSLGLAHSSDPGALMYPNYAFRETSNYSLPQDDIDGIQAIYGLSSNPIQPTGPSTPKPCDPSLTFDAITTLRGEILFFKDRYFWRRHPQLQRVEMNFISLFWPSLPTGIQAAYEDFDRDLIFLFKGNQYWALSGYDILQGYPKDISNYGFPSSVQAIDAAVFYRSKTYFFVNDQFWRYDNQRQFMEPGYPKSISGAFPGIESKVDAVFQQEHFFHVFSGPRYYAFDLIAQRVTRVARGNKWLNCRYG

The IC50 is the concentration that gives 50% inhibition. On to `CNC(=O)[C@H](Cc1ccccc1)NC(=O)[C@@H](CC(=O)NO)CC(C)C`, for which the IC50 turned out to be 0.046 nM.

Regarding `CNC(=O)[C@H](Cc1ccccc1)NC(=O)[C@H](CC(=O)NO)CC(C)C`, the IC50 is 48 nM.

Values taken from ChEMBL document CHEMBL1156676, “Peptidyl 3-substituted 1-hydroxyureas as isosteric analogues of succinylhydroxamate MMP inhibitors” (Eur J Med Chem, 2008).
